These are yes or no findings as the source states them, for the method shown.
B1: S100A11 (protein, UniProt P31949 1-105)
chain: MAKISSPTETERCIESLIAVFQKYAGKDGYNYTLSKTEFLSFMNTELAAFTKNQKDPGVLDRMMKKLDTNSDGQLDFSEFLNLIGGLAMACHDSFLKAVPSQKRT
B2: S100A12 (protein, UniProt P80511 1-92)
chain: MTKLEEHLEGIVNIFHQYSVRKGHFDTLSKGELKQLLTKELANTIKNIKDKAVIDEIFQGLDANQDEQVDFQEFISLVAIALKAAHYHTHKE

By UniProt entry, the sequences of proteins in these tests, tags left out.
UniProt P26447: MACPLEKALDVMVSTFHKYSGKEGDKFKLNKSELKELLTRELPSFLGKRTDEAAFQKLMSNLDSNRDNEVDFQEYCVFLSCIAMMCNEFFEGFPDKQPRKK

Target: GST-HMG20A wild-type (2–347)-His6 (human) (UniProt Q9NP66)
Assay: condition: 15 µg with 45 µg GST-HMG20A-His6 in 500 µL; pull-down; GST-HMG20A-His6 (45 µg) incubated with S100 proteins or calmodulin (15 µg) in 500 µL 150 mM NaCl, 20 mM Tris-HCl pH 7.5, 0.05% Tween 20, with 2 mM CaCl2 or 2 mM EGTA, 1 h room temperature; glutathione-sepharose; Coomassie staining; both purified

binding, no binding:
S100A4 (from UniProt P26447 1-101)
B1
B2

Source: paper PMC8103281
